{"source": "PubChem BioAssay AID2685", "about": "(National Center for Advancing Translational Sciences (NCATS), 2010)", "note": "The campaign covered roughly 320,000 compounds. About 2,100 (0.66%) were called active. This list was built around the results that the source calls inconclusive (neither active nor inactive); the mix of calls is not that of the screen. The call rests on the fitted dose curve; in most records, active means well fitted inhibition curve with a large enough effect in the signal ratio, with a control signal flat (not every such curve was filed as active); inconclusive means small, poorly fitted or top-dose-only effect, or effect the other way, or a change in a side signal; inactive means flat fitted curve, though single readings scatter; the % refers to the signal ratio. A potency beside an inconclusive call is a rough fit, not a confirmed value. On the % scale 0 is the no-effect control and ±100 the full control effect; potency means the concentration at half of the fitted maximal effect.", "data": [{"experiment": "qHTS Assay for Lipid Storage Modulators in Drosophila S3 Cells", "settings": "BODIPY lipid droplet fluorescence, 18-24 h, cells fed with added oleic acid; lipid storage change, negative = inhibition: at 46.1 µM (top of the series) unless noted", "in_short": "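Laser-scanning cytometry quantifies lipid droplet accumulation (500–530 nm total intensity; droplet/cell object ratio) in oleic acid-fed (400 uM added) Drosophila S3 cells treated with a concentration series. 20 uM Triacsin C defined 100% inhibition.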", "values": [{"smiles": "CCC1=NN(C(=O)c2ccc(Cl)cc2)C(O)(c2ccc(C)cc2)C1", "note": "(stereo not drawn)", "Potency": "inconclusive: 4.11 µM [falling, single point]"}, {"smiles": "Cc1noc(C)c1COc1ccccc1C(=O)N(C)Cc1ccc(F)cc1", "lipid storage change, negative = inhibition": "inactive: 19.1% [at 0.0737 µM]"}, {"smiles": "COc1ccc(CNc2cc(C)cc(C)c2)cc1OC", "Potency": "inconclusive: 18.4 µM [activator, partial curve]"}, {"smiles": "CC(C)CCNC(=O)C1CC(c2cccc(F)c2)=NO1", "note": "(stereo not drawn)", "lipid storage change, negative = inhibition": "inconclusive: 9.58%"}, {"smiles": "O=C(CNC(=O)c1cc(Cl)cc([N+](=O)[O-])c1)OCC(=O)N1CCCCC1", "lipid storage change, negative = inhibition": "inconclusive: -47.8%"}, {"smiles": "Cc1cc(C)n(-c2nc3ccccc3nc2N2CCN(S(=O)(=O)c3ccc4ccccc4c3)CC2)n1", "lipid storage change, negative = inhibition": "inconclusive: 14.2%"}, {"smiles": "O=C1CCCC2=C1C(c1ccc(Cl)cc1)C1C(=O)c3ccccc3C1=N2", "note": "(stereo not drawn)", "lipid storage change, negative = inhibition": "inconclusive: 34.1%"}, {"smiles": "COc1ccc(Cc2nnc(SCc3c(C)noc3C)n2C2CCCCC2)cc1OC", "lipid storage change, negative = inhibition": "inconclusive: 41.6%"}, {"smiles": "C=CCN(c1ccc(C(=O)Nc2ccc(C)cc2)cc1)S(C)(=O)=O", "lipid storage change, negative = inhibition": "inconclusive: -17.9%"}, {"smiles": "Cc1cc(N2CCN(Cc3nc(-c4ccc(Cl)cc4)oc3C)CC2)cc(C)n1", "lipid storage change, negative = inhibition": "inconclusive: 19.4%"}, {"smiles": "CCCOc1ccc(/C(O)=C2/C(=O)C(=O)N(CCCn3ccnc3)C2c2ccc(C)o2)cc1", "note": "(stereo not drawn)", "lipid storage change, negative = inhibition": "inconclusive: -16.3%"}, {"smiles": "COc1cc(OC)cc(-c2cc3nc(C)cc(N4CCN(C(=O)c5ccco5)CC4)n3n2)c1", "Potency": "inconclusive: 8.2 µM [activator, partial curve]"}, {"smiles": "COC(=O)CCCCCN1C(=O)NC(c2ccc(-c3ccccc3)cc2)C(C(=O)OCc2ccccc2)=C1C", "note": "(stereo not drawn)", "Potency": "inconclusive: 14.6 µM [activator, partial curve]"}, {"smiles": "CCC(Cc1ccccc1)NC(=O)c1ccc2nc(N3CCOCC3)sc2c1", "note": "(stereo not drawn)", "lipid storage change, negative = inhibition": "inconclusive: 33.6%"}, {"smiles": "O=C(Nc1ccc(S(=O)(=O)N2CCOCC2)cc1)c1ccccc1F", "Potency": "inconclusive: 29.1 µM [falling, single point]"}, {"smiles": "CCOC(=O)C1=C(C)N=C2SC(CC)C(=O)N2C1c1cccc(F)c1", "note": "(stereo not drawn)", "Potency": "inconclusive: 0.517 µM [activator, full curve]"}, {"smiles": "COc1cccc2c1CCc1c-2nc2ccccc2c1C(=O)O", "lipid storage change, negative = inhibition": "inconclusive: -31.5%"}, {"smiles": "Cc1cc(C)n(-c2ccc(C(=O)OCC(=O)c3ccc(Br)s3)cc2)n1", "lipid storage change, negative = inhibition": "inconclusive: -36.9%"}, {"smiles": "Cc1cccc(CN2CCC(C(=O)Nc3cccc(-c4cccc(F)c4)c3)CC2)n1", "lipid storage change, negative = inhibition": "inactive"}, {"smiles": "CCOC(=O)Cn1cnc2c(nnn2-c2ccc(F)cc2)c1=O", "lipid storage change, negative = inhibition": "inconclusive: 13.8%"}, {"smiles": "CC(C)(C)c1ccc(C(=O)Nc2cccc(C(=O)N3CCOCC3)c2)cc1", "Potency": "inconclusive: 29.1 µM [cytotoxic, single point]"}, {"smiles": "Cc1c(NS(=O)(=O)c2ccccc2F)c(=O)n(-c2ccccc2)n1C", "Potency": "inconclusive: 6.51 µM [activator, single point]"}, {"smiles": "Cc1ccc(C2(C)NC(=O)N(Cc3c(C)noc3C)C2=O)cc1", "note": "(stereo not drawn)", "lipid storage change, negative = inhibition": "inconclusive: 52.9%"}, {"smiles": "CC(C)N1C[C@@]23C=C[C@@H](O2)C(C(=O)OCc2ccccc2)[C@H]3C1=O", "note": "(stereo partly drawn)", "Potency": "inconclusive: 6.51 µM [falling, single point]"}, {"smiles": "CCc1ccc(NC(=O)c2onc(C)c2Cl)cc1", "lipid storage change, negative = inhibition": "inconclusive: 88.1%"}, {"smiles": "CC(C)[C@H](NC(=O)c1c(F)cccc1F)C(=O)OCC(=O)NC(=O)NC1CCCC1", "lipid storage change, negative = inhibition": "inconclusive: 115%"}, {"smiles": "COc1ccc(C(=O)CSc2nc(C)cc(C)n2)cc1C", "lipid storage change, negative = inhibition": "inconclusive: 4.02%"}, {"smiles": "CCCCCC(=O)Nc1nnn(CCC)n1", "Potency": "inconclusive: 2.31 µM [falling, partial curve]"}, {"smiles": "COc1ccc(C(=O)n2cnnc2N)cc1", "lipid storage change, negative = inhibition": "inconclusive: 16.3%"}, {"smiles": "COc1ccccc1C(=O)NCCC(=O)Nc1ncccc1O", "lipid storage change, negative = inhibition": "inconclusive: -0.585%"}, {"smiles": "COc1cccc(N2CCN(C(=S)Nc3cc(C)cc(C)c3)CC2)c1", "lipid storage change, negative = inhibition": "inconclusive: 2.63%"}, {"smiles": "CCCN1CCC(NCc2cn(C)nc2-c2ccc(Oc3ccccc3)cc2)CC1", "lipid storage change, negative = inhibition": "inconclusive: 21.9%"}, {"smiles": "COC(=O)[C@H](CCSC)NC(=O)N1CCC(C)CC1", "Potency": "inconclusive: 0.0058 µM [falling, full curve, poor fit]"}, {"smiles": "COC(=O)Cn1c(=NC(=O)c2ccc(S(=O)(=O)N3CCc4ccccc4C3)cc2)sc2cc(OC)ccc21", "lipid storage change, negative = inhibition": "inconclusive: 28.3%"}, {"smiles": "O=C(NNC(=S)Nc1ccccc1)c1cccc(S(=O)(=O)N2CCOCC2)c1", "lipid storage change, negative = inhibition": "inconclusive: -54.7%"}, {"smiles": "Cc1ccc(S(=O)(=O)NC(=O)Nc2ccc(C)cn2)cc1", "Potency": "inconclusive: 0.231 µM [falling, full curve]"}, {"smiles": "O=C(Nc1cc(C(F)(F)F)ccc1N1CCOCC1)C1CC1", "Potency": "inconclusive: 2.59 µM [activator, full curve]"}, {"smiles": "CCCCOC(=O)Cn1cnc2ccc(Br)cc2c1=O", "lipid storage change, negative = inhibition": "inconclusive: -3.43%"}, {"smiles": "CN(C(=O)CSc1nc2cc([N+](=O)[O-])ccc2n1-c1ccc(F)cc1)C1CCS(=O)(=O)C1", "note": "(stereo not drawn)", "lipid storage change, negative = inhibition": "inconclusive: 17.3%"}, {"smiles": "CCc1c(C(=O)NNC(=S)NCc2ccccc2)csc1C", "lipid storage change, negative = inhibition": "inconclusive: 21.5%"}, {"smiles": "CN1CCN(c2nc3c(c(=O)[nH]c(=O)n3C)n2Cc2ccccc2F)CC1", "Potency": "inconclusive: 0.0046 µM [activator, full curve, poor fit]"}, {"smiles": "CCOC(=O)C1=NOC(Cn2cc(C#N)c(=O)n(C)c2=O)C1", "note": "(stereo not drawn)", "lipid storage change, negative = inhibition": "inconclusive: -10.7%"}, {"smiles": "N#CCCN(C(=O)COC(=O)Cc1c[nH]c2ccccc12)c1ccccc1", "lipid storage change, negative = inhibition": "inconclusive: 15.8%"}, {"smiles": "CCN1C(=O)/C(=C\\N(C)C)S/C1=N\\S(=O)(=O)c1ccccc1", "lipid storage change, negative = inhibition": "inconclusive: -14.7%"}, {"smiles": "CN(CC1CCCO1)S(=O)(=O)c1ccc(C(=O)Nc2ccc([N+](=O)[O-])cc2)cc1", "note": "(stereo not drawn)", "Potency": "active: 12.6 µM"}, {"smiles": "O=C(NC1CCN(S(=O)(=O)c2ccccc2)CC1)c1cccc(F)c1", "Potency": "inconclusive: 18.4 µM [falling, single point]"}, {"smiles": "CCOc1cc(/C=N/NC(=O)C(=O)NCCCOC(C)C)cc(Br)c1O", "lipid storage change, negative = inhibition": "inconclusive: 28.5%"}, {"smiles": "CCc1ccc(NC(=O)CCC(=O)Nc2nnc(C(F)(F)F)s2)cc1", "lipid storage change, negative = inhibition": "inactive"}, {"smiles": "COc1ccc(NC(=O)C(c2ccc(Cl)cc2)C(C)C)cn1", "note": "(stereo not drawn)", "lipid storage change, negative = inhibition": "inconclusive: 23.9% [cytotoxic]"}, {"smiles": "COc1ccccc1NC(=O)Nc1nc(CC(=O)NCc2ccc(F)cc2)cs1", "lipid storage change, negative = inhibition": "inconclusive: 14.6%"}, {"smiles": "Fc1ccc(-n2cc(-c3ccccc3)[n+]3c2SCC3)cc1", "lipid storage change, negative = inhibition": "inconclusive: 118%"}, {"smiles": "Cc1ccc(F)c(NC(=O)CCOc2ccccc2C)c1", "Potency": "inconclusive: 0.58 µM [falling, single point]"}, {"smiles": "CCc1cccc(NC(=O)c2cc(S(=O)(=O)N(C)C)ccc2N2CCCC2)c1", "lipid storage change, negative = inhibition": "inconclusive: 66.3%"}, {"smiles": "O=C1CC(NS(=O)(=O)c2ccc3ccccc3c2)CN1c1ccccc1", "note": "(stereo not drawn)", "lipid storage change, negative = inhibition": "inconclusive: 38.8%"}, {"smiles": "Cn1c2ccccc2c2nnc(SCC(=O)NC3CC3)nc21", "lipid storage change, negative = inhibition": "inactive"}, {"smiles": "O=C(c1ccc(Cn2cc([N+](=O)[O-])cn2)o1)N1N=C(C(F)F)CC1(O)C(F)F", "note": "(stereo not drawn)", "Potency": "inconclusive: 3.26 µM [rising, single point]"}, {"smiles": "O=C(O)CCC(=O)N(Cc1ccccc1)Cc1ccccc1", "lipid storage change, negative = inhibition": "inconclusive: 14.1%"}, {"smiles": "CCCCCCCCCCS(=O)(=O)N/N=C/c1ccc(O)cc1", "lipid storage change, negative = inhibition": "inconclusive: -12.3%"}, {"smiles": "Cc1ccc(N2C(=O)C3ON(c4ccccc4)C(c4ccncc4)C3C2=O)c(C)c1", "note": "(stereo not drawn)", "lipid storage change, negative = inhibition": "inconclusive: -71.8%"}, {"smiles": "Cc1ccc2nc(Cl)c(/C=N/n3c(C)nnc3C)cc2c1", "lipid storage change, negative = inhibition": "inconclusive: -2.59%"}, {"smiles": "C=CCNC(=O)C1CC(=O)N(c2ccc(OCc3ccccc3Cl)cc2)C1", "note": "(stereo not drawn)", "lipid storage change, negative = inhibition": "inconclusive: 11.4%"}, {"smiles": "Cc1ccc(N(CC(=O)NC2CC3CCC2C3)S(C)(=O)=O)cc1C", "note": "(stereo not drawn)", "lipid storage change, negative = inhibition": "inconclusive: -58.6%"}, {"smiles": "Cc1ccccc1OCCC(=O)Nc1ccccc1C(=O)NC1CC1", "lipid storage change, negative = inhibition": "inconclusive"}, {"smiles": "CC1CCCCC1NC(=O)CCC(=O)N1CCOc2ccc(Cl)cc21", "note": "(stereo not drawn)", "lipid storage change, negative = inhibition": "inconclusive: 152%"}, {"smiles": "Cc1ccc2c(c1)N(CC(=O)NC1CCCCC1)C(=O)c1cccnc1O2", "lipid storage change, negative = inhibition": "inconclusive: -4.12%"}, {"smiles": "Cc1ccc(CNC(=O)c2ccccc2NC(=O)CN2CC(C)OC(C)C2)cc1", "note": "(stereo not drawn)", "lipid storage change, negative = inhibition": "inconclusive: 419%"}, {"smiles": "O=C(Nc1nc2ccc(F)cc2s1)C1=COCCO1", "lipid storage change, negative = inhibition": "inconclusive"}, {"smiles": "COc1ccc(Cc2nnc(NC(=O)c3ccc(OC(C)=O)cc3)s2)cc1OC", "Potency": "inconclusive: 25.9 µM [activator, single point]"}, {"smiles": "CCN(CC)C(=O)c1ccc(-c2nnc(Nc3ccc(C(=O)N(C)C)cc3)c3ccccc23)cc1", "lipid storage change, negative = inhibition": "inconclusive: -71.8%"}, {"smiles": "COc1cccc2sc(N(CCN(C)C)C(=O)c3ccc4c(c3)CCCC4)nc12", "lipid storage change, negative = inhibition": "inconclusive: -34.1%"}, {"smiles": "COc1ccc(CN2C(=O)C(C)Oc3ccccc32)cc1", "note": "(stereo not drawn)", "lipid storage change, negative = inhibition": "inconclusive: 125%"}, {"smiles": "CCCCc1cc(=O)oc2cc(C)c(CN3CCCC3)c(O)c12", "Potency": "inconclusive: 29.1 µM [falling, single point]"}, {"smiles": "C=C(C)c1cccc(C(C)(C)NC(=O)N2CCOCC2)c1", "Potency": "inconclusive: 23.1 µM [falling, single point]"}, {"smiles": "CN(CC(=O)Nc1ccc(F)cc1)CC(=O)NC1CCCCC1", "Potency": "inconclusive: 0.411 µM [falling, full curve, poor fit]"}, {"smiles": "COc1ccc(/C=C/C(=O)c2cc(F)ccc2OC(=O)c2ccccc2OC)cc1OC", "lipid storage change, negative = inhibition": "inconclusive: -9.28%"}, {"smiles": "COc1cccc(NC(=O)c2ccccc2-c2nc(-c3ccccc3)no2)c1", "Potency": "inconclusive: 10.3 µM [activator, partial curve]"}, {"smiles": "CCCCn1c(N)c(N(CC)C(=O)CSc2nnnn2-c2cc(C)ccc2C)c(=O)[nH]c1=O", "lipid storage change, negative = inhibition": "inconclusive: 27.2%"}, {"smiles": "Cc1ccc(OCC(=O)OC2CCS(=O)(=O)C2)cc1", "note": "(stereo not drawn)", "Potency": "inconclusive: 20.6 µM [falling, single point]"}]}]}
